Experimental data taken from PubChem BioAssay AID2685 (National Center for Advancing Translational Sciences (NCATS), 2010).
The list shows a part of the results. The main result of the screen is listed elsewhere. These columns were measured beside it and carry no call. Compounds called inactive in the main read-out are mostly missing here. Potencies come from curve fits of mixed quality, noted in brackets.

Test: qHTS Assay for Lipid Storage Modulators in Drosophila S3 Cells;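 as to cell number change: cells counted by Cell Tracker Red CMTPX staining in the red channel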
Conditions: BODIPY lipid droplet fluorescence, 18-24 h; for cell number change: measured here: cell count max response, cells fed with added oleic acid
In short: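 Drosophila S3 cells got compounds at several concentrations plus oleic acid (400 uM solution). Laser-scanning cytometry with 488 nm excitation read lipid droplets at 500-530 nm and cells at 575-640 nm. Percent activity was relative to 20 uM Triacsin C.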

[1] = measured here: lipid fluorescence (Fed channel) AC50, cells fed with added oleic acid
[2] = measured here: cell number channel AC50, cells fed with added oleic acid

Compound	cell number change	AC50 [1]	AC50 [2]
COc1ccc(NC(=O)c2coc3ccccc23)cc1OC	3.13%	0.58 µM [rising, single point]	
CSc1ccc(C(=S)N2CCCC2)cc1	2.2%		
CCO/N=C(\C)c1c(O)c2ccccc2n(C)c1=O	8.16%		
Cc1ccc(-c2noc(CSc3nnc(Cc4ccccc4)n3-c3ccc(Cl)cc3)n2)cc1	-19.5%		
CC(=O)Nc1ccc(S(=O)(=O)NNC(=O)c2cccc([N+](=O)[O-])c2)cc1	-3.97%	20.6 µM [rising, single point]	
COc1ccc(C(=O)COC(=O)c2sc(C)nc2C)cc1OC	-5.06%	0.00461 µM [rising, full curve, poor fit]	
Fc1ccccc1C1CCN(Cc2nc(COc3ccccc3)no2)C1 (stereo not drawn)	21.1%	3.66 µM [rising, full curve, poor fit]	
COC(=O)Cc1c(C)[nH]n(-c2cc(Cl)cc(Cl)c2)c1=O	-11.1%		
Clc1ccc(C2=CSC3=NCCN23)cc1Cl	12.1%	1.64 µM [rising, full curve, poor fit]	
CCOC(=O)N1CCN(CC(=O)N2CCC(C(N)=O)CC2)CC1	23.5%		
Cc1ccc(S(=O)(=O)N2CCCC(c3nc4c(nnn4Cc4ccc5c(c4)OCCO5)c(=O)[nH]3)C2)cc1 (stereo not drawn)	8.58%	14.6 µM [falling, partial curve]	
COc1ccc(NC(=O)CSc2nnc(-c3ccc(C)cc3)n2N)cc1	-0.961%	1.03 µM [falling, partial curve]	
Cc1cc(OC(C)C(=O)NC2CCN(Cc3ccccc3)CC2)c2c(C)cc(=O)oc2c1 (stereo not drawn)	8.56%	4.61 µM [rising, full curve]	
COc1cc(/C=N\NC(=O)c2ccc(Cn3cc(Br)c([N+](=O)[O-])n3)o2)cc(OC)c1O	0.482%	11.6 µM [falling, partial curve, poor fit]	
C(/C=C/C=C/Nc1ccccc1)=Nc1ccccc1	1.63%	6.51 µM [falling, single point]	
O=c1cc(C23CC4CC(CC(C4)C2)C3)[nH][nH]1	-56.2%		23.1 µM [falling, single point]
Cc1ccc(C)c(N2CCN(S(=O)(=O)c3ccc4c(c3)CC(=O)N4C)CC2)c1	2.29%	29.1 µM [rising, single point]	
COc1ccc(NC(=O)CSc2nnc(C)n2N)cc1S(=O)(=O)N1CCCCC1	15.3%	0.82 µM [falling, full curve]	0.82 µM [falling, full curve]
O=C(CO/N=C/c1ccc(OC(F)F)cc1)NC1CCCCC1	26.8%		
COc1ccccc1NC(=O)CSc1nc2sc(C)c(C)c2c(=O)n1C	0.833%	0.517 µM [rising, partial curve, poor fit]	
O=c1c2c([N+](=O)[O-])cc([N+](=O)[O-])cc2sn1Cc1ccccc1	-102%	4.61 µM [falling, full curve]	5.17 µM [falling, full curve]

Single values from the list:
Value of Cc1ccc(S(=O)(=O)N2CCCC(c3nc4c(nnn4Cc4ccc5c(c4)OCCO5)c(=O)[nH]3)C2)cc1 (stereo not drawn) under cell number change: 8.58%
Value of COc1ccc(NC(=O)CSc2nnc(C)n2N)cc1S(=O)(=O)N1CCCCC1 under AC50 [2]: 0.82 µM [falling, full curve]
Value of CCOC(=O)N1CCN(CC(=O)N2CCC(C(N)=O)CC2)CC1 under cell number change: 23.5%

(continued)

Compound	cell number change	AC50 [1]	AC50 [2]
CCCn1nc(NC(=O)c2cccs2)c2cc3cc(OC)ccc3nc21		0.411 µM [rising, full curve]	
COc1cc2c(cc1OC)CN(CC(=O)Nc1ccc(F)cc1)C(C(=O)O)C2 (stereo not drawn)	17.7%	7.31 µM [rising, single point]	
Cc1cccc(CS(=O)(=O)Cc2ccc(C(=O)NC(C)c3ccccc3)o2)c1 (stereo not drawn)	2.64%	6.51 µM [falling, single point]	
CN(C)S(=O)(=O)c1cc(NC(=O)CNCCN2CCOCC2)ccc1Cl	5.55%		
CCOC(=O)CSc1nnc(-c2ccc(OC)cc2)n1CC	-9.53%		
Cn1ncc(Cl)c1C(=O)N1CCN(c2ccc(F)cc2)CC1	-10.5%	32.6 µM [rising, single point]	
Cc1ccc(CSC2=NCCN2C(=O)c2ccc([N+](=O)[O-])cc2)cc1		4.11 µM [falling, partial curve]	6.51 µM [falling, single point]
CCN(CC)S(=O)(=O)c1cccc(-c2nnc(SCc3ncc(-c4ccccc4)o3)n2C)c1	-0.486%	4.61 µM [falling, full curve, poor fit]	
Cc1cccc(-n2ccnc2SCC(=O)Nc2cc(C)on2)c1			6.51 µM [rising, partial curve, poor fit]
Cn1c(N)c(C(=O)CCl)c(=O)n(C)c1=O	44.8%		
Cn1c(CNC(=O)c2ccc3c(c2)OCO3)nnc1SCC(=O)Nc1ccc(F)cc1	13.2%	0.461 µM [falling, single point]	
CCCCn1c(N)c(N(CC(C)C)C(=O)COC(=O)Cc2c(C)nc3ccccc3c2C)c(=O)[nH]c1=O		29.1 µM [rising, single point]	
CC(C)CSc1nc2ccccc2n1CC(N)=O	-24.8%	25.9 µM [rising, single point]	3.66 µM [falling, full curve, poor fit]
COc1ccc(OC)c(-c2csc(NC(=O)CSCc3c(C)noc3C)n2)c1	-19.4%	2.91 µM [rising, partial curve]	
COc1ccc(C(=O)COC(=O)CNC(=O)c2cccs2)cc1Br	13%		
O=C(CSc1nnnn1-c1ccccc1)Nc1ccc(N2CCOCC2)c(Cl)c1	117%		25.9 µM [rising, partial curve]
N#CC1=C(N)Oc2ccc3ccc(O)cc3c2C1c1ccsc1 (stereo not drawn)	6.33%	0.116 µM [rising, full curve, poor fit]	
COc1cc(/C=N/NC(=O)C(=O)NCC2CCCO2)cc(Cl)c1O (stereo not drawn)			0.92 µM [falling, partial curve]
CCOc1ccc(/C=N/n2c(-c3ccccc3)n[nH]c2=S)cc1	16.2%	0.116 µM [rising, full curve, poor fit]	
COc1cc2cc(CCOC(=O)c3ccc(C(F)(F)F)cc3)oc(=O)c2cc1OC	5.37%	0.116 µM [falling, single point]	
COc1cc2c(cc1OC)C(c1cc3cc(OC)c(OC)cc3[nH]c1=O)N(C(=O)C1CC1)CC2 (stereo not drawn)	11.9%	29.1 µM [falling, single point]	
